The other results are listed elsewhere or left out.

Protein sequences, listed by entry. Tags and fused reporters are not part of them.
UniProt Q0JBA9, entry or part of it: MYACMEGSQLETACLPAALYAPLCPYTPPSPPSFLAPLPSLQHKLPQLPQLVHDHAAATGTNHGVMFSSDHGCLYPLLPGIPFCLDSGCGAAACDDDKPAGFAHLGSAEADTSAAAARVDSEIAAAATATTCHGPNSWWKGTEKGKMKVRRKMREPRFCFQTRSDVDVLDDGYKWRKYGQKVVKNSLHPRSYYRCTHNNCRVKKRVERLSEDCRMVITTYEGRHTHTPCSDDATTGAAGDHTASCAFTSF

The experiment deals with OsWRKY34 (Oryza sativa, UniProt Q0JBA9 1-250). Briefly: protein-binding microarray (RPBM); PBS, 2% BSA, 51.3 ng/ul salmon testes DNA, 50 uM zinc acetate, 200 nM TF, 25 C, 1 h; high values mean tight binding. As to conditions: protein: recombinant; tags: N-terminal polyhistidine and DsRed monomer fusion (pET32a); label: CyDye5-dUTP incorporated in the synthesized complementary strand; 3' TTTTT single-stranded linker to array surface; dsDNA, one strand shown. A digest of the protocol:
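Polyhistidine-tagged DsRed fusions of transcription factors, joined at the N-terminus, were expressed in E. coli BL21-CodonPlus and isolated on Ni–NTA. They were incubated at 200 nM for 1 h at 25 °C on a custom Agilent array, double-stranded and BSA-blocked, in PBS with 2% BSA, salmon testes DNA and 50 µM zinc acetate. The binding signal is per-feature fluorescence intensity (arbitrary units) read on an Axon 4000B scanner after washing.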
“CCGCCAACCCACGCTCTATCCACTCACACACACTCTCCTCCGGAGTCACCTAGTGCAG”: the binding signal is 8920 fluorescence intensity (a.u.). To “ATGTGCCATTGATTTTTGTCTCTTTTTTTAGAAGTACAAACGGAGTCACCTAGTGCAG” belongs 8240 fluorescence intensity (a.u.); to “ATAGCCAGAAGCCTGTAGCTCTCCATGGGCCCGTACTCGTCGGAGTCACCTAGTGCAG”, 9630 fluorescence intensity (a.u.); to “GCACCTGTCAGGCTGTCACCACCCGACCATTCCCGAACTCCGGAGTCACCTAGTGCAG”, 9490 fluorescence intensity (a.u.). On to “GAAACCCTCTTCGTTTTGTTTTACCTCCGCCCCTGATCATCGGAGTCACCTAGTGCAG”, for which the binding signal is 8580 fluorescence intensity (a.u.).

With “ACGACCTCGCACGCTGCTCTCGCAAGCTCTCTCGGCCATGCGGAGTCACCTAGTGCAG”, the binding signal was 8030 fluorescence intensity (a.u.). As to “GTTCACTGTACCACCCTTATCAGTATCTGCATTCTGCAACCGGAGTCACCTAGTGCAG”, the binding signal was 12900 fluorescence intensity (a.u.). “TGGGGCCCACACTAGCGGGCAATTGGTTCTCGTAGTTTCTCGGAGTCACCTAGTGCAG”: the binding signal is 8220 fluorescence intensity (a.u.). The figure for “CCGCCATCGCCGTTGTTTTTGCCACTGCCGCCCGACGCCGCGGAGTCACCTAGTGCAG” is 11400 fluorescence intensity (a.u.); for “TTTTTCTTCTTCTCTACGGCGAGCGCCTCCGCTTGTTTGTCGGAGTCACCTAGTGCAG” it is 9990 fluorescence intensity (a.u.); for “ATTTTTCGGTGTTGGGTGTTGAGTGTTCCTAATTTCATAACGGAGTCACCTAGTGCAG” it is 12600 fluorescence intensity (a.u.).

Take “ACCGGGTTCCACATGTCATACACACATTACGTCTTGGAGTCGGAGTCACCTAGTGCAG”: the binding signal was 9420 fluorescence intensity (a.u.). The figure for “TATCGTGTTTGATCCGTGTCTCTGTTAGTCTCTGCCACGACGGAGTCACCTAGTGCAG” is 8070 fluorescence intensity (a.u.); for “ACATAGTTTCCATCGGTTTTGATAGTTGGAGGGGTCGATACGGAGTCACCTAGTGCAG” it is 12800 fluorescence intensity (a.u.). To “GGGTGGGAGGGAGGGAGTACATGGTAAGGCCATTCAACAGCGGAGTCACCTAGTGCAG” belongs 20200 fluorescence intensity (a.u.); to “AGAGATGCGTGTGTAGGCGGCGGGGAGGGGAGGGCTGTGACGGAGTCACCTAGTGCAG”, 17700 fluorescence intensity (a.u.). The figure for “CTTTCTCATTCTGAATCATCCACAGTATGTCAAATTCTCACGGAGTCACCTAGTGCAG” is 9000 fluorescence intensity (a.u.). For the sequence “GATGCAGATCGGTACTGCTGAACAGCTGACCACACTTGCTCGGAGTCACCTAGTGCAG”, the binding signal is 9260 fluorescence intensity (a.u.). On to “GCCCTGACCTGAGAGATGTTTGTTCTTGTTGATTTTTGTGCGGAGTCACCTAGTGCAG”, for which the binding signal is 10000 fluorescence intensity (a.u.). On to “CGTCATATCAGCGTCCCGATACAAATACCCACTTGATATACGGAGTCACCTAGTGCAG”, for which the binding signal is 9620 fluorescence intensity (a.u.).

For the sequence “ACTCACTTCAAAATTTTCACATCCTCTCTCATCATTTTTTCGGAGTCACCTAGTGCAG”, the binding signal was 11100 fluorescence intensity (a.u.).

For “CATATCTTCTCTTCCATTCCTTTTTTCTTGTGGAGAGTATCGGAGTCACCTAGTGCAG”, the binding signal was 9850 fluorescence intensity (a.u.). For the sequence “CCTGCTCTCTCTCTCGTCCTCTTTATATCTGCAATTCTGCCGGAGTCACCTAGTGCAG”, the binding signal was 10500 fluorescence intensity (a.u.).

For the origin of these results see PMC7819943, “Rice protein-binding microarrays: a tool to detect cis-acting elements near promoter regions in rice”.
